Experimental data reported in PubChem BioAssay AID2551 (National Center for Advancing Translational Sciences (NCATS), 2010).
Several values for one entry are separate records, joined by “and”; a condition that tells them apart may be missing. Identical values can stand only once. About 17,000 (5.5%) of roughly 310,000 compounds were called active. The shares of active, inactive and inconclusive entries below differ from those in the screen. The call rests on the fitted dose curve; in most records, active means well fitted inhibition curve with a large enough effect; inconclusive means small, poorly fitted or top-dose-only effect, or effect the other way; inactive means no such curve, though single readings can be large or run the other way. Where the call is inconclusive, the potency comes from a doubtful curve fit.

The chains behind the UniProt entries cited, without tags or fusion partners. Where a name states a change or a piece, a line headed by the entry shows the natural chain unless it says otherwise.
UniProt P51450: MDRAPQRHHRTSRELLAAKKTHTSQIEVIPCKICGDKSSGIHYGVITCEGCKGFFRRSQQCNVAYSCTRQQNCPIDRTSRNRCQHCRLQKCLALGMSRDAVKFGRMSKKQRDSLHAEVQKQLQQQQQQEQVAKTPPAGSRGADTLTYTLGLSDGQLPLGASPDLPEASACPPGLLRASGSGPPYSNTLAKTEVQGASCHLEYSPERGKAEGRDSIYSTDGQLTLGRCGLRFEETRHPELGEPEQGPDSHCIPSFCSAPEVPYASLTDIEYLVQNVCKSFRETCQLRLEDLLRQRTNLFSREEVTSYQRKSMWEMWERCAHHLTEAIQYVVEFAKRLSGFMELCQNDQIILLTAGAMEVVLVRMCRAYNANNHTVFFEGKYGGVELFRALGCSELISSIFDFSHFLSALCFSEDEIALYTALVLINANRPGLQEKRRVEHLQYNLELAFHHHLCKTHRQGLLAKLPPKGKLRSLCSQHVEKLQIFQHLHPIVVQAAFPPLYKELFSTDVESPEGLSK

Molecular target: Nuclear receptor ROR-gamma (Mus musculus) (UniProt P51450)
Experiment: qHTS for inhibitors of ROR gamma transcriptional activity; further: nearly all actives have a fitted effect of over 60% in size
Settings: Drosophila S2 Gal4-RORgamma UAS-luciferase reporter, 20 h; activity change, negative = inhibition: at 53.6 µM (top of the series)
Summary of the method: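 Using a luciferase readout, inhibitors were identified by reduced reporter activity in Drosophila cells coexpressing a copper-inducible Gal4–ROR gamma fusion and UAS-driven Photinus luciferase, incubated 20 hr after 700 uM copper sulfate.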
On the % scale 0 is the no-effect control and ±100 the full control effect; potency means the concentration at half of the fitted maximal effect.

Row | SMILES | Potency | activity change, negative = inhibition
1 | CCCOc1ccc(C(=O)c2nc3c(n2O)CCCC3)cc1 | inconclusive: 15.8 µM [inhibitor, single point] | 
2 | O=C(c1cc2ccccc2oc1=O)N1CCN(c2ncccn2)CC1 | inconclusive: 2.51 µM [activator, full curve] | 
3 | CC(NC(=O)c1ccco1)c1nc(-c2ccc(C(C)(C)C)cc2)no1 (centres undefined) | inconclusive: 14.1 µM [activator, single point] | 
4 | CCCc1cc(-c2nc(-c3ccc(Cl)cc3)cs2)ccn1 | inactive | 
5 | Cc1cccc(N=C2NN=C(c3ccccc3F)CS2)c1C | inconclusive: 35.5 µM [inhibitor, single point] | 
6 | Cc1ccc(-n2nc(C)c3c2OC(N)=C(C#N)C3c2cccs2)cc1 (centres undefined) | inactive | 
7 | O=C(NC1CCCCC1)C(c1cccs1)N(Cc1cccs1)C(=O)c1ccco1 (centres undefined) | inconclusive: 7.94 µM [activator, partial curve] | 
8 | C/C(=N/NC(=O)CNC(=O)/C=C/c1ccco1)c1ccc(Cl)cc1 | inactive | 
9 | Cc1ccc(C)c(NC(=S)NCCN(C2CCCCC2)C2CCCC2)c1 | inconclusive: 3.98 µM [inhibitor, full curve] | 
10 | COc1ccc(C(=O)N/N=C/c2cccc3cccnc23)cc1 | active: 0.562 µM | 
11 | COc1ccc(-c2n[nH]c(=S)n2CC(C)C)cc1 | active: 10 µM | 
12 | NS(=O)(=O)c1ccc(-c2ccc(/C=C3\C(=O)Nc4cc(Cl)ccc43)o2)cc1 | inconclusive: 35.5 µM [inhibitor, single point] | 
13 | COc1ccc(C2/C=C\CN(CC(C)C)C(Cc3ccccc3)C(=O)N2Cc2ccc(F)cc2)cc1 (centres undefined) | inconclusive: 35.5 µM [inhibitor, single point] | 
14 | Cc1ccc(Cn2ccc(NC(=O)c3cc(CC(C)C)on3)n2)cc1 | inconclusive: 35.5 µM [activator, single point] | 
15 | CC(/C=C1\SC(=S)N(CCC(=O)Nc2ccc(O)cc2)C1=O)=C\c1ccccc1 | active: 14.1 µM | 
16 | O=C(CC1C(=O)NCCN1Cc1ccc(-c2ccccc2)cc1)NC1CCC1 (centres undefined) | inactive | 
17 | Cc1cc2c3c(cccc3n1)C(=O)c1ccccc1-2 | inconclusive: 22.4 µM [inhibitor, single point] | 
18 | CC1(C)CC(=O)C(=CN2CCOCC2)C(=O)C1 | inactive | 
19 | C(=N\C(/N=C/c1ccco1)c1ccco1)/c1ccco1 | inactive | 
20 | Cc1ccc(-n2c(C)n[nH]c2=S)cc1 | active: 11.2 µM | 
21 | C=CCN1C(=O)C(Cc2ccc(OC)cc2)S/C1=N/N=C/c1ccco1 (centres undefined) | inconclusive: 15.8 µM [inhibitor, single point] | 
22 | Cc1ccc(S(=O)(=O)NC2CCCCCC2)cc1C(N)=O | inconclusive: 2.51 µM [activator, partial curve] | 
23 | c1cnc(SCCOc2ccc3c(c2)CCC3)nc1 | inconclusive: 1.12 µM [activator, full curve, poor fit] | 
24 | CC(C)(C)c1ccc(-c2n[nH]c(=S)n2-c2ccccc2)cc1 | active: 3.16 µM | 
25 | O=C(CCCSc1nc2ccccc2[nH]1)Nc1nnc(C2CC2)s1 | inconclusive: 20 µM [activator, single point] | 

Row | SMILES | Potency | activity change, negative = inhibition
26 | COc1c(/C=C2\SC(=Nc3ccccc3Cl)NC2=O)cccc1[N+](=O)[O-] | inconclusive: 22.4 µM [activator, single point] | 
27 | CN(C)/C=N/c1c(C#N)cnn1-c1nc2ccccc2s1 | inconclusive: 6.31 µM [inhibitor, full curve, poor fit] | 
28 | Cc1cccc(C)c1NC(=O)CCCCCNS(=O)(=O)c1ccccc1 | inactive | 
29 | CCOC(=O)N1CCN(Cc2nc3c(c(=O)n(C)c(=O)n3C)n2CCC(C)C)CC1 | inactive | 
30 | COCCNC(=O)Cc1c(C)c2cc3c(cc2oc1=O)OC(C)(C)CC3 | inconclusive: 12.6 µM [activator, single point] | 
31 | COc1ccc(NC(=S)NC(=O)C2CCC2)cc1 | active: 8.91 µM | 
32 | Cc1ccccc1NC(=S)N1CCCC(c2nc3ccccc3[nH]2)C1 (centres undefined) | inactive | 
33 | CCCCN(C(=O)CSc1cc(C)c2ccc(OC)cc2n1)c1c(N)n(Cc2ccccc2)c(=O)[nH]c1=O | inconclusive: 17.8 µM [inhibitor, partial curve] | 
34 | CCCc1ccc(OCc2ccc(C(=O)N/N=C/c3cccc([N+](=O)[O-])c3)o2)c(OC)c1 | inconclusive: 25.1 µM [inhibitor, single point] | 
35 | CCOc1ccc(C(=O)n2cc(C(=O)OC)c3ccccc32)cc1OCC | inconclusive: 35.5 µM [activator, single point] | 
36 | CCCCOc1ccc(C(=O)CCN2CCCCC2)cc1 | inconclusive: 22.4 µM [inhibitor, single point] and inconclusive: 35.5 µM [inhibitor, single point] | 
37 | COc1ccc(/C=N/Nc2ncnc(Cl)c2N)cc1OC | inconclusive: 35.5 µM [inhibitor, single point] | 
38 | COc1cccc(-c2nnc3sc(-c4ccc(C)cc4)nn23)c1 | inactive | 
39 | COc1cc(-c2nnc(-c3ccco3)o2)ccc1OCc1ccccc1 | inconclusive: 10 µM [activator, partial curve, poor fit] | 
40 | O=C(/C=C/c1ccccc1[N+](=O)[O-])NCC1CCCO1 (centres undefined) |  | inactive: 16.2% [at 10 µM]
41 | COc1cccc(C(=O)NNC2=C(C(=O)C(F)(F)F)CCC2)c1 | active: 5.62 µM | 
42 | Cc1ccc(NC(=O)OCc2cncs2)cc1 | inconclusive: 4.47 µM [activator, full curve, poor fit] | 
43 | Cc1cc2ncn(/N=C/c3ccc4c(c3)OCO4)c2cc1C | inactive | 
44 | CCOC(=O)C1=C(c2ccc(OC)cc2)OC(N)=C(C#N)C1c1cccnc1 (centres undefined) | inactive | 
45 | CCC(=O)OCCNc1cc(Sc2nccn2C)c2nonc2c1[N+](=O)[O-] | active: 4.47 µM | 
46 | CCOc1cc(CNc2ncnc3nc[nH]c23)ccc1OC | inconclusive: 35.5 µM [activator, single point] | 
47 | C=CCNc1cc(C(F)(F)F)nc(-c2ccccn2)n1 | active: 1.58 µM | 
48 | Cc1nn(Cc2ccc(F)cc2)c2sc(C(=O)Nc3nccs3)cc12 | active: 11.2 µM | 
49 | O=C(N/N=C/c1c[nH]c2ccc(Br)cc12)c1ccccn1 | inactive | 
50 | O=C(N1CCOCC1)N1CCC(NC(=O)C23CC4CC(CC(C4)C2)C3)CC1 | inconclusive: 0.1 µM [inhibitor, full curve] | 

Row | SMILES | Potency | activity change, negative = inhibition
51 | NC(=O)CC(NC(=O)c1ccc(Br)cc1)c1ccc(NC2CCCCC2)c([N+](=O)[O-])c1 (centres undefined) | inconclusive: 14.1 µM [activator, partial curve] | 
52 | COc1ccccc1NC(=S)NCc1ccc(F)cc1 | active: 31.6 µM | 
53 | COC(=O)C1=C(C)N(c2cc(Cl)cc(Cl)c2)C(=O)C1 | inconclusive: 17.8 µM [inhibitor, single point] | 
54 | CCC(Sc1ccc(Cl)cc1)C(=O)Nc1nnc(-c2cccc([N+](=O)[O-])c2)s1 (centres undefined) | inconclusive: 15.8 µM [inhibitor, single point] | 
55 | N#CNC(=Nc1ccc(F)cc1)SCc1ccccc1 | inconclusive: 35.5 µM [activator, single point] | 
56 | S=C(c1ccc(-c2cc(Cl)ccc2Cl)o1)N1CCOCC1 |  | inactive: 26% [at 0.365 µM]
57 | O=S(=O)(O/N=C1\CCCc2ccccc21)c1ccccc1 | inconclusive: 14.1 µM [inhibitor, partial curve, poor fit] | 
58 | COc1cc(C(=O)Nc2ccc(S(=O)(=O)N(C)c3ccccc3)cc2)cc(OC)c1OC | inconclusive: 14.1 µM [activator, partial curve] | 
59 | O=c1[nH]c(=O)n(Cc2ccc(Oc3ccccc3)cc2)cc1Br | inconclusive: 20 µM [activator, partial curve, poor fit] | 
60 | O=C(Cn1cnc2ccccc2c1=O)N1CCN(c2ccccc2)CC1 | inactive | 
61 | CCOc1ccc(C(=O)N/N=C/c2cccc3cccnc23)cc1 | active: 0.708 µM | 
62 | COc1cccc(O)c1O | inconclusive: 35.5 µM [inhibitor, single point] | 
63 | COc1ccccc1CNc1nc(-c2ccc(N(C)C)cc2)nc2ccccc12 | active: 7.94 µM | 
64 | CCCCC1=NN2C(=N)CC(=O)N=C2S1 | active: 10 µM | 
65 | COc1ccc(N2CCN(S(=O)(=O)c3ccc(C(=O)NCc4ccco4)cc3)CC2)cc1 | inactive | 
66 | Cc1ccc(-c2csc(N3CCN(CCCn4c(C(F)(F)F)nc5ccccc54)CC3)n2)cc1 | inconclusive: 12.6 µM [inhibitor, single point] | 
67 | CC(C)c1ccc(NC(=O)CSc2n[nH]c(=O)n2Cc2ccco2)cc1 | inconclusive: 35.5 µM [activator, single point] | 
68 | COC(=O)c1ccc(C2C(Oc3ccccc3)C(=O)N2CCc2ccc(OC)c(OC)c2)cc1 (centres undefined) | inconclusive: 35.5 µM [inhibitor, single point] | 
69 | CCOC(=O)c1c(NC(=O)COC(=O)c2ccccc2NC)sc(C(=O)N(C)C)c1C | inactive | 
70 | CCCCCCCCCCCCOCCOCCOCCOCCO | inactive and inconclusive: 15.8 µM [activator, single point] | 
71 | O=C(/C=C/c1ccc(Cl)c([N+](=O)[O-])c1)Nc1ccc(N2CCCC2)c(Cl)c1 | inconclusive: 35.5 µM [inhibitor, single point] | 
72 | CC12CCC(c3nnc(SCc4ccc(Cl)cc4)nc31)C2(C)C (centres undefined) | inconclusive: 35.5 µM [activator, single point] | 
73 | COc1ccc(NC(=S)N(CCC(C)C)C2CCN(C(C)C)CC2)cc1Cl | inactive | 
74 | COc1ccc(C(=O)NC(=S)Nc2nc(C)c(C(=O)N(C)C)s2)cc1 | inconclusive: 0.794 µM [inhibitor, full curve] | 
